Results are given in words; binding and its absence hold for the method and conditions named. In cells and extracts the contact can be indirect. Some results given as binding are weak or reduced against the parent protein; the word gives no strength. Sequences can lack the tags named with a protein.
How the values were obtained:
[1] = target: T1, myc-tagged full length Atg11 (S. cerevisiae, UniProt Q12527 1-1178); test: co-IP; IP of Atg11-myc and co-IP of HA-Atg9 from lysates of nonstarved cells with buffer or purified Atg17 (1, 4 μM) added
T1 construct: Atg11, scaffolding protein of selective autophagy, yeast; also called Atg11-myc; myc-Atg11; source: yeast cells expressing myc-tagged Atg11, in lysate
T1 sequence (looked up): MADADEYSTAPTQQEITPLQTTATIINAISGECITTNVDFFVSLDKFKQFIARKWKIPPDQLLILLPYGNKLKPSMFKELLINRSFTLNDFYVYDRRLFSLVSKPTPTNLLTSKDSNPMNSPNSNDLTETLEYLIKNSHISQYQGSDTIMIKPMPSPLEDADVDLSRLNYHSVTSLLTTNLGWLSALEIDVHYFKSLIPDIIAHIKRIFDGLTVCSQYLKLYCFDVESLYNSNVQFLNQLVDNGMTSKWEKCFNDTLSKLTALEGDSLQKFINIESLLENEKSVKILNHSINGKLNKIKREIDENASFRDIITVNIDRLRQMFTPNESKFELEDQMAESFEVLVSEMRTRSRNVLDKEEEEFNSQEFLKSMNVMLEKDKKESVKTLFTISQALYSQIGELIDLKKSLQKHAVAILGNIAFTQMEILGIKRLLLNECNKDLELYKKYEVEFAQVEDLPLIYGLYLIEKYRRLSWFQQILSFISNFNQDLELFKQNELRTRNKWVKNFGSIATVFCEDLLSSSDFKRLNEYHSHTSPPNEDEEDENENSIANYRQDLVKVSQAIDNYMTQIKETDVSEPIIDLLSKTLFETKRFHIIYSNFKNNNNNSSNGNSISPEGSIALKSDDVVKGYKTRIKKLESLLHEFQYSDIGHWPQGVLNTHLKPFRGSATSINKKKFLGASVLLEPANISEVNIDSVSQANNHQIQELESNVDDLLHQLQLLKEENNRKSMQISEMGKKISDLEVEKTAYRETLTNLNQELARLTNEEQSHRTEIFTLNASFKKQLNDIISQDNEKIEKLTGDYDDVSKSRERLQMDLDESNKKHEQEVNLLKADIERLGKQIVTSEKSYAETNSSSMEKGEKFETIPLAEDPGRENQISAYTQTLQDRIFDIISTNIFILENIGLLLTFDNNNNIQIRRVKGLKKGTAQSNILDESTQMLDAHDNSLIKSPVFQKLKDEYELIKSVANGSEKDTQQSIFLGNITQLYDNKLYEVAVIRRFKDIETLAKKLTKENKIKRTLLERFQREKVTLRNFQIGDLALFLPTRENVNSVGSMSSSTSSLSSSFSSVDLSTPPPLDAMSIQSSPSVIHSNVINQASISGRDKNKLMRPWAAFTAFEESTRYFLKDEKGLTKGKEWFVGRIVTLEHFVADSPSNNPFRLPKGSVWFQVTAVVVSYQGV

[2] = target: T2, GFP-tagged Atg11 (S. cerevisiae) (UniProt Q12527); test: co-IP; IP of GFP-tagged Atg11 or its fragments, co-IP of HA-tagged Atg9; lysates of log-phase growing and 2 h starved cells
T2 sequence: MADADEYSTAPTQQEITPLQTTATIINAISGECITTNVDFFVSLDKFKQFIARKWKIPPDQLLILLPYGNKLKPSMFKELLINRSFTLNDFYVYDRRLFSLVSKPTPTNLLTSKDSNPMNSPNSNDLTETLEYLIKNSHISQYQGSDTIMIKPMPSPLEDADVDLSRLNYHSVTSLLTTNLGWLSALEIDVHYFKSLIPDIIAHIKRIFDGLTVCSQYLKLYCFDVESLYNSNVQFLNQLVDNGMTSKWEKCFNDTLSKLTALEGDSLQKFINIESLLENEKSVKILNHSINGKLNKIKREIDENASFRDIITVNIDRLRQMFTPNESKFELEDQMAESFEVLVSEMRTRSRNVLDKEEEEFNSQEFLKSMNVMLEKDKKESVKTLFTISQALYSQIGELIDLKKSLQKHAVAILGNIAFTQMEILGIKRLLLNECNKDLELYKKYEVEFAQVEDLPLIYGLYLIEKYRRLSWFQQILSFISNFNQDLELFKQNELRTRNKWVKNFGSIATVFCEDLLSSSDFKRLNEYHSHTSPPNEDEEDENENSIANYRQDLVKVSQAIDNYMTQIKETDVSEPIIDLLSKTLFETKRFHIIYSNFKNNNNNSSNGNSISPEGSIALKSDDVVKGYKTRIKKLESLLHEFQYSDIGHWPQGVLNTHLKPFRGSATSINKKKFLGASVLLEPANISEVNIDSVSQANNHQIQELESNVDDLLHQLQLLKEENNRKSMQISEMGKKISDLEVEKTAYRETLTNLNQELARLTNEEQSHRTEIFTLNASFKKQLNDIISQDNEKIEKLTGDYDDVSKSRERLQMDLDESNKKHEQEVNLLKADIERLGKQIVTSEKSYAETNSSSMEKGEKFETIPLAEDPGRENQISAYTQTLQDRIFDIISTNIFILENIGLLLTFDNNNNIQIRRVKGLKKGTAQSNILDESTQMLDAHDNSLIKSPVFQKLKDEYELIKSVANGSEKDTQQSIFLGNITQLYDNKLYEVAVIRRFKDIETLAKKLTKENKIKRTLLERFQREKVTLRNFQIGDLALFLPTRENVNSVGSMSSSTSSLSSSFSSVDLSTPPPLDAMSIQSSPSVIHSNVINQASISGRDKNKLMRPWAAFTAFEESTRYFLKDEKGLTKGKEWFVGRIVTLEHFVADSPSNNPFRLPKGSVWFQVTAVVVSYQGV

[3] = target: T3, GFP-tagged Atg11^ΔC (residues 1-667) (S. cerevisiae) (UniProt Q12527); test: as above
T3 sequence: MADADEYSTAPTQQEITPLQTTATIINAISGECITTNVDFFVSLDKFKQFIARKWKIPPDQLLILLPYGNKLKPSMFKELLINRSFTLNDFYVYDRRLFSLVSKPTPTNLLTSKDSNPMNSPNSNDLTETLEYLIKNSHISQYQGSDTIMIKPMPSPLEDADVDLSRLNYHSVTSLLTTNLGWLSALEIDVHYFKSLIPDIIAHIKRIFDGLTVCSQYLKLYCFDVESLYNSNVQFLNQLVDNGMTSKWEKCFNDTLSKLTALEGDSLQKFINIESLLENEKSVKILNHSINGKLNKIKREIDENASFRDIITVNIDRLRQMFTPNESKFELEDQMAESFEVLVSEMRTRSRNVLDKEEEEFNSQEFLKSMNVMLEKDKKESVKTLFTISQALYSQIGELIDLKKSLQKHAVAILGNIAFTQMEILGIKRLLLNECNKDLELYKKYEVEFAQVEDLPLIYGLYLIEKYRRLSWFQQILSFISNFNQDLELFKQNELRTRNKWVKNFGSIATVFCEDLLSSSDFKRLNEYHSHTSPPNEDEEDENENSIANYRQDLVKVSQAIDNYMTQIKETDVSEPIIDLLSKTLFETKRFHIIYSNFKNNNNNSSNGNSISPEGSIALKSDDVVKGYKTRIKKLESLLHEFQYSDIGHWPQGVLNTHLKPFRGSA

[4] = target: T1, myc-tagged full length Atg11; test: co-IP; IP of myc-tagged Atg11 (anti-myc, Protein A magnetic beads), co-IP of HA-tagged Atg9; lysates of WT, atg13Δ, atg17Δ, atg29Δ and atg31Δ cells, log phase and starved; 25 mM Tris-HCl pH 7.2, 150 mM NaCl, 0.2% NP-40

binding [1]: binds
binding [2]: binds
binding [3]: binds
binding [4]: binds
B1: HA-tagged Atg9 (natural protein, S. cerevisiae, UniProt Q12142 1-997, looked up)
chain: MERDEYQLPNSHGKNTFLSRIFGLQSDEVNPSLNSQEMSNFPLPDIERGSSLLHSTNDSREDVDENDLRVPESDQGTSTEEEDEVDEEQVQAYAPQISDGLDGDHQLNSVTSKENVLETEKSNLERLVEGSTDDSVPKVGQLSSEEEEDNEFINNDGFDDDTPLFQKSKIHEFSSKKSNTIEDGKRPLFFRHILQNNRPQRDTQKLFTSSNAIHHDKDKSANNGPRNINGNQKHGTKYFGSATQPRFTGSPLNNTNRFTKLFPLRKPNLLSNISVLNNTPEDRINTLSVKERALWKWANVENLDIFLQDVYNYYLGNGFYCIILEKILNICTLLFVVFVSTYMGHCVDYSKLPTSHRVSDIIIDKCYSNSITGFTKFFLWMFYFFVILKIVQLYFDVQKLSELQNFYKYLLNISDDELQTLPWQNVIQQLMYLKDQNAMTANVVEVKAKNRIDAHDVANRIMRRENYLIALYNSDILNLSLPIPLFRTNVLTKTLEWNINLCVMGFVFNESGFIKQSILKPSQREFTREELQKRFMLAGFLNIILAPFLVTYFVLLYFFRYFNEYKTSPGSIGARQYTPIAEWKFREYNELYHIFKKRISLSTTLANKYVDQFPKEKTNLFLKFVSFICGSFVAILAFLTVFDPENFLNFEITSDRSVIFYITILGAIWSVSRNTITQEYHVFDPEETLKELYEYTHYLPKEWEGRYHKEEIKLEFCKLYNLRIVILLRELTSLMITPFVLWFSLPSSAGRIVDFFRENSEYVDGLGYVCKYAMFNMKNIDGEDTHSMDEDSLTKKIAVNGSHTLNSKRRSKFTAEDHSDKDLANNKMLQSYVYFMDDYSNSENLTGKYQLPAKKGYPNNEGDSFLNNKYSWRKQFQPGQKPELFRIGKHALGPGHNISPAIYSTRNPGKNWDNNNNGDDIKNGTNNATAKNDDNNGNNDHEYVLTESFLDSGAFPNHDVIDHNKMLNSNYNGNGILNKGGVLGLVKEYYKKSDVGR
notes: Atg9, transmembrane autophagy protein, yeast; also called HA-Atg9; source: yeast cells expressing HA-tagged Atg9, in lysate
